From PubChem BioAssay AID1656 (Sanford-Burnham Center for Chemical Genomics, 2009) come the findings set out here.

The other results are listed elsewhere or left out. Some tests of the compounds listed are not included; inactive here does not mean inactive elsewhere.

The nature of this assay: inhibitors of hepatocyte lipid droplet formation, primary screen, imaging, high-throughput imaging, BODIPY stain (AID 1656).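 Further: cells counted across two imaged fields per well.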 The settings on record: AML12 mouse hepatocytes, oleate lipid droplets, measured here: cell count, cytotoxicity flag, at 6.5 µM. In short, it runs like this: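 material = mouse AML12 hepatocyte cell line, fixed after treatment | also added = 100 µM oleic acid challenge | doses = compound at 6.5 µM only | schedule = overnight exposure | technique = Image-based BODIPY and DAPI two-channel analysis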
For the compound `O=C(OC1CN2CCC1CC2)C(CO)(c1ccccc1)c1ccccc1` (stereo unspecified), the cell count is 709 cells.

Regarding `COc1ccc(Br)c(C(=O)NCC2(N3CCCCC3)CCCCC2)c1`, the cell count came out at 711 cells.

With `CN(C)C1(CNC(=O)c2ccc(Br)cc2)CCCCC1`, the cell count worked out at 827 cells.

Regarding `COc1cc(C(=O)NCC2(N(C)C)CCCCC2)c([N+](=O)[O-])cc1OC`, the cell count came out at 858 cells.

With `COc1ccc(Cl)cc1C(=O)NCC1(N(C)C)CCCCC1`, the cell count was found to be 777 cells.

`COc1cccc(C(=O)NCC2(N3CCCCC3)CCCCC2)c1`: the cell count amounted to 683 cells.

With `O=C(NCC1(N2CCCCC2)CCCCC1)c1cccc(Cl)c1`, the cell count is 782 cells.

Turning to `CN(C)c1ccc(C(=O)NCC2(N(C)C)CCCCC2)cc1`, the cell count was 833 cells.

`CN(C)C1CCCC1OC(=O)C(O)(c1ccccc1)c1ccccc1` (stereo unspecified) returned a cell count of 672 cells.

`Cc1ccccc1C(=O)NCC1(N2CCCCC2)CCCCC1`: the cell count was found to be 685 cells.

Compound `O=C(NCC1(N2CCCCC2)CCCCC1)c1cc(F)c(F)cc1Cl` displayed a cell count of 768 cells.

`C=CCN1CCN(CCOC(=O)C(O)(c2ccccc2)c2ccccc2)CC1` registered a cell count of 733 cells.

`COc1ccc(C(=O)NCC2(N(C)C)CCCCC2)cc1` had a cell count of 690 cells.

The compound `O=C(NCC1(N2CCCCC2)CCCCC1)c1cccc(Br)c1` had a cell count of 831 cells.

For the compound `CCN1CCCC(OC(=O)C2(O)c3ccccc3C=Cc3ccccc32)C1` (stereo unspecified), the cell count came to 710 cells.

Turning to `Cc1cc(C(=O)NCC2(N3CCCCC3)CCCCC2)ccc1[N+](=O)[O-]`, the cell count was found to be 843 cells.

Regarding `O=C(NCC1(N2CCCCC2)CCCCC1)c1cc([N+](=O)[O-])ccc1Cl`, the cell count turned out to be 687 cells.

`CN1[C@@H]2CC[C@H]1CC(OC(=O)C(O)(c1ccccc1)c1ccccc1)C2` (stereo partly specified) came in with a cell count of 798 cells.

The compound `COc1cc(SC)ccc1C(=O)NCC1(N(C)C)CCCCC1` gave a cell count of 847 cells.

As to `CCN(CC)CC(C)C(C)OC(=O)C(O)(c1ccccc1)c1ccccc1` (stereo unspecified), the cell count amounted to 715 cells.

With `Cc1ccc(C(=O)NCC2(N3CCCCC3)CCCCC2)cc1`, the cell count was 737 cells.
